These results are taken from article PMC5296679.

Assay [1] deals with FT2α (BiFC fusion) (B. distachyon). The assay is described as follows: split reporter; BiFC with split YFP fusions expressed transiently in N. benthamiana leaves; confocal imaging 3 days after infiltration.
The target of assay [2] is FT2β (BiFC fusion) (B. distachyon). The assay is described as above.
Assay [3] concerns the target FT2α (BiFC fusion) (B. distachyon). In words: split reporter; competition BiFC in N. benthamiana leaves: FT2β plasmid co-infiltrated with the BiFC constructs, GUS in place of FT2β as control; fluorescent nuclei and fluorescence intensity.
For assay [4], the target named is FT2α (two-hybrid fusion) (B. distachyon). In words: two-hybrid; yeast three-hybrid: bait and prey co-transformed with or without the competitor FT2β into AH109; liquid β-Gal assay with CPRG.
Assay [5] addresses FT2β (two-hybrid fusion) (B. distachyon). In words: two-hybrid; Matchmaker GAL4 system, yeast AH109, pGBKT7 and pGADT7 fusions; growth on SD/-Leu/-Trp/-His/-Ade plus 2.5 mM 3-aminotriazole.
Assay [6] has as its target FT2α (two-hybrid fusion) (B. distachyon). Described as above.

Results are given in words; binding and its absence hold for the method and conditions named. For part of these data: Binding calls can cover weak binding; strength is not graded here. Tags and fused reporters may be left off the sequences shown. For part of these data: Binding seen in cells or lysates may run through a third protein.

B1: GF14b (BiFC fusion) (protein, UniProt I1I791 1-256)
chain: MSREDNVYMAKLAEQAERYEEMVEYMEKVAKTVDVEELTVEERNLLSVAYKNVIGARRASWRIVSSIEQKEEGRGNEDHVTLIKDYRGKIEAELSKICDGILKLLDSHLVPMSTAAESKVFYLKMKGDYHRYLAEFKASAERKEAAESTMVAYKAAQDIALAELAPTHPIRLGLALNFSVFYYEILNSPDKACNLAKQAFDEAISELDTLGEESYKDSTLIMQLLRDNLTLWTSDLTEEGAEEGKEASKGEAGEGQ
On to B1, for which the values for the binding result in assay [1], in assay [2] and in assay [3] were “binds”, “no binding” and “binds”, respectively.

B2: GF14b (two-hybrid fusion) (protein, UniProt I1I791 1-256)
chain: B1 chain
As to B2, the binding entry is reported as “binds” in assay [4], “no binding” in assay [5] and “binds” in assay [6].
